Data as given in PubChem BioAssay AID652272 (Drosophila RNAi Screening Center, 2013).

- Test: 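Finding fly genes that regulate Hedgehog signal transduction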 (primary screen)
- System: Drosophila clone 8 (Cl8) cells
- Knock-down reagent: long dsRNA against Drosophila genes
- Read-out: 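Firefly light from a Hedgehog-responsive ptc promoter reporter and Renilla reference light, both read on a plate reader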
- Scale: firefly Hh reporter signal: higher = more ptc reporter light; Renilla reference signal: higher = more Renilla control light
- Hit rule: 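Called a hit if the two-replicate mean z-score lies below -2 or above +3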
- Calls: active = hit: reporter lowered or raised; inactive = not a hit
The screen tested about 21,000 reagents; below is a random part of those that have a named target and a result. Of all reagents, 503 (2.4%) were called active. 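Raw plate light values, not normalised; calls rest on replicate z-scores that were not deposited; hits include reporter decreases as well as increases.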 A number with no mark means an inactive call. The numbers tell different reagents against one gene apart. Reagent sequences are not shown. The record does not give: the amount of reagent, the time to read-out.

target gene,reagent no.,"firefly Hh reporter signal, replicate 1","firefly Hh reporter signal, replicate 2","firefly Hh reporter signal, replicate 3","Renilla reference signal, replicate 1","Renilla reference signal, replicate 2"
CG8560,1,1.01e5,52199,,4422,2581
nau (nautilus),1,4.37e5,1.01e5,,22896,3156
Rlb1,1,72523,1.11e5,,2138,3163
RunxA (Runt related A),1,7.73e5,3.01e5,,49213,7725
RunxA (Runt related A),2,1.17e5,70953,,3112,1777
RunxA (Runt related A),3,96989,6.27e5,2.31e5,3877,4777
SkpC (SKP1-related C),1,1.12e5,3.05e5,,3355,13824
CG4496,1,1.38e5,56688,,3728,5826
TM9SF2 (Transmembrane 9 superfamily protein member 2),1,1.25e5,65861,,4336,2473
CG13159,1,1.41e5,1.25e5,,3426,7010
Ncoa6 (Nuclear receptor coactivator 6),1,24386 (active),14870,,1780,906
CG2444,1,64618,2.44e5,,1670,9372
imd (immune deficiency),1,70120,85133,,3101,3200
Cht12 (Chitinase 12),1,1.10e5,2.36e5,,7538,9749
Zdhhc8 (Zinc finger DHHC-type containing 8),1,65796,91452,,2106,4387
Zdhhc8 (Zinc finger DHHC-type containing 8),2,92053,2.48e5,,2694,9355
CG9636,1,1.01e5,1.02e5,,3991,3930
Snx27 (Sorting nexin 27),1,1.73e5,3.17e5,,6252,12013
Snx27 (Sorting nexin 27),2,1.02e5,2.19e5,,3850,8232
Snx27 (Sorting nexin 27),3,56658,2.17e5,,2156,7559
CG15096,1,1.51e5,1.15e5,,5748,3882
Manf (Mesencephalic astrocyte-derived neurotrophic factor),1,1.22e5,1.06e5,,5168,4497
Cals (Calsyntenin),1,1.69e5,1.45e5,,3965,4630
